Measurements reported in PubChem BioAssay AID686937 (Drosophila RNAi Screening Center, 2013)
The screen tested about 23,000 reagents; below is an unselected part of those with a known target gene and a result. 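Reduced-secretion tags in replicate 1 do not always agree with the z-scores; no criterion for assigning the tags was given.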 The numbers tell different reagents against one gene apart. Names joined by + are all predicted targets of the reagent. Further read-outs or replicates are left out here. Not stated in the record: the amount of reagent.

Test: 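Genes in the fly needed for secretion of protein constitutively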 (primary screen)
Cell system: Drosophila S2 cells expressing secreted horseradish peroxidase
Reagents: long dsRNA against Drosophila genes
Duration: about 5.5 days (5 days dsRNA, then 12 h reporter induction)
Challenge: reporter expression induced after 5 days of dsRNA, read 12 h later; inducer not stated
Measurement: 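After 5 days of dsRNA and 12 h of reporter induction, medium peroxidase read by chemiluminescence and scored as per-plate z-score; higher values mean more reporter released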
Scale: z-score: higher = more reporter secreted into medium

Target gene	reagent	z-score, replicate 1	z-score, replicate 2
CG17211	1	-0.16	0.11
CG12682	1	0.02	0.08
Droj2	1	-0.65	0.17
Npc1b	1	0.25	0.25
betaggt-I	1	0.14	0.4
CG3815	1	0.47	0.59
CG14223	1	0.34	0.35
CG7227	1	0.17	0.14
Obp57c	1	0.38	0.43
CG11668	1	0.49	0.55
CG9676	1	0.39	0.44
CG5504	1	0.25	0.23
Rh7	1	0.21	0.08
cv-2	1	-0.32	0.06
cv-2	2	-0.02	0.07
PGRP-SA	1	0.23	0.11
Eglp1	1	-0.29	-0.13
MED16	1	-6.95	-5.51
mr	1	-0.02	0.26
mr	2	0.1	-0.12
Tfb1	1	-1.74	-1.88
asRNA:CR43159 + yellow-k	1	0.49	0.32
CG14826	1	0.41	0.29
Sas10	1	0.26	-0.75
RagC-D	1	-1.33	-0.62
CG13074	1	0.38	0.26
FoxL1	1	0.24	0.07
Adf1	1	-0.31	
Adf1	2	0.26	0.23
CG13315	1	0.31	-0.2
stil	1	0.2	0.4
dsf	1	-0.11	-0.18
jv	1	0.39	0.17
jv	2	0.47	0.3
hh	1	0.58	0.48
chm	1	0.31	0.23
CG11537	1	0.47	0.57
CG18530	1	0.18	0.35
CG10859	1	0.31	0.34
pav	1	-1.47	-0.54
CG31805	1	-1.17	-0.18
CG46298	1	-0.78	-0.35
VhaPPA1-1	1	-1.03	-1.37
ninaB	1	0.32	0.52
cGlr1	1	-1.77	0.32
lectin-30A	1	-0.01	-0.02
eIF4E7	1	0.35	0.49
eIF4E7	2	-3.1	0.3
asRNA:CR43468 + Lfg	1	0.37	0.49
mRpL18	1	0	0.36
Ist1	1	0.03	0.52
Pldn	1	0.52	0.41
CG11920	1	0.12	0.03
CG7394	1	0.06	0.2
Adk2	1	-0.12	-0.01
cmet	1	0.25	0.15
